The results are deposited in PubChem (AID1159506; NCATS, 2015).

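Luminescence from an EWS-FLI1 target-promoter (NR0B1) reporter, set against a CMV-promoter reporter, two days after silencing single genes in TC32 Ewing sarcoma cells. Each siRNA was applied at 20 nM. A z-score of the log NR0B1-over-CMV signal, less the median of siRNAs with the same seed; more negative means a stronger specific loss of the NR0B1 reporter.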

The strongest results of the screen are mostly left out here. Sequences are the guide (antisense) strand, without overhang.

Sequence: AAUCUUGUAGUCAUCGUAC
target gene: XKRX
seed-corrected z-score: -0.3414

Sequence: UUCGUUUGCAUUGCCUUGC
target gene: DDX43
seed-corrected z-score: 1.417

Sequence: ACAGUGACAACCAUCAGCG
target gene: SPACA5B
seed-corrected z-score: 0.7939

Sequence: AGCUAGGCCAAAACAGUUC
target gene: RPLP1P5
seed-corrected z-score: -0.8043

Sequence: UUAGCUCAAAAGUUGCGGU
target gene: LCN12
seed-corrected z-score: -0.8823

Sequence: UAGUAGUCAGGCAAGAUUG
target gene: TMEM17
seed-corrected z-score: -0.8938

Sequence: UCUGAUACAAUCAAUGAAG
target gene: PREPL
seed-corrected z-score: -0.1267

Sequence: AUAAUGAUUGUUAGGCUUG
target gene: OR8D4
seed-corrected z-score: 1.019

Sequence: UCAUUUGUCACAAAGUAAC
target gene: HS3ST4
seed-corrected z-score: 0.1353

Sequence: UCACUUUCUCCGACUCUGC
target gene: LOC649201
seed-corrected z-score: -0.4098

Sequence: UGGGCUAAACAUGACAUGC
target gene: UBL4A
seed-corrected z-score: -0.5156

Sequence: UUCCAUUGACUUAUGUUCC
target gene: METTL18
seed-corrected z-score: -0.7536

Sequence: ACUGUUAUCAUUGUCCUCA
target gene: GGA3
seed-corrected z-score: 0.2849

Sequence: UUCAGUGGAGAUUCUAUCC
target gene: RAE1
seed-corrected z-score: 0.5897

Sequence: UGACUUUCUGGUUUGGACA
target gene: LOC729995
seed-corrected z-score: -0.01676

Sequence: UUCCUGUCUAUAGGCAGCC
target gene: GFAP
seed-corrected z-score: 0.6742

Sequence: UGAUUGACCUGUGACAAGG
target gene: VWF
seed-corrected z-score: -0.9711

Sequence: UAUUGUCUUUCACAUAUUG
target gene: MT1B
seed-corrected z-score: -0.1041

Sequence: UUUAUAGUUGGGAACUUCC
target gene: RPS25
seed-corrected z-score: 0.6555

Sequence: AAUCUCUUCAAAUCUCACU
target gene: AZIN2
seed-corrected z-score: -0.3962

Sequence: AAAGAUGUGAAAACACUCA
target gene: NR2C2
seed-corrected z-score: -0.5454

Sequence: UAUAGGACAUGACAAUACC
target gene: ACADL
seed-corrected z-score: 0.7019

Sequence: UAUAUUGCGACUAAAACUC
target gene: SYT14P1
seed-corrected z-score: -0.9807

Sequence: AUAUAUUCUCAAACGAUCC
target gene: GJD4
seed-corrected z-score: -1.375

Sequence: AAUUCAACUAUGUCACCUG
target gene: CFHR2
seed-corrected z-score: 0.4327

Sequence: UUUCGUUAUGCUUAUACUC
target gene: MASTL
seed-corrected z-score: 0.2651

Sequence: UAAGUUUCAACAGGGCACA
target gene: H1F0
seed-corrected z-score: -0.005233

Sequence: UUCAUAACUCUUUCAGGUC
target gene: PXT1
seed-corrected z-score: -0.1739

Sequence: UUUCUUGAGGCUAUCCACU
target gene: SDPR
seed-corrected z-score: 0.3491

Sequence: AAAAGGUCCUGAAUUGUCC
target gene: MPP6
seed-corrected z-score: 1.217

Sequence: AUACUCGUGAUAAAGCACC
target gene: SLC20A2
seed-corrected z-score: -0.1398

Sequence: UCUGUUUAUCCAGUCGACC
target gene: IWS1
seed-corrected z-score: -0.6782

Sequence: ACAGCAAUAAGGUAGAGGG
target gene: OR51E1
seed-corrected z-score: 1.243

For reference, 4 entries once more:

| Sequence | target gene | seed-corrected z-score |
|---|---|---|
| `UUUAUAGUUGGGAACUUCC` | RPS25 | 0.6555 |
| `UGAUUGACCUGUGACAAGG` | VWF | -0.9711 |
| `UAAGUUUCAACAGGGCACA` | H1F0 | -0.005233 |
| `UAGUAGUCAGGCAAGAUUG` | TMEM17 | -0.8938 |